Data from doi:10.1101/2022.04.29.490031.
No constants are given. Whether binding was seen depends on the method and setting. For some of these results: Binding seen in cells or lysates may run through a third protein. Some binding calls cover weakened binding; strength is not graded here. For some of these results: Tags and fused reporters may be left off the sequences shown.

Columns and labels:
[1] = molecular target: T1, SPTLC1^FLAG L39del (ALS variant) (UniProt O15269); assay: co-IP
T1 sequence: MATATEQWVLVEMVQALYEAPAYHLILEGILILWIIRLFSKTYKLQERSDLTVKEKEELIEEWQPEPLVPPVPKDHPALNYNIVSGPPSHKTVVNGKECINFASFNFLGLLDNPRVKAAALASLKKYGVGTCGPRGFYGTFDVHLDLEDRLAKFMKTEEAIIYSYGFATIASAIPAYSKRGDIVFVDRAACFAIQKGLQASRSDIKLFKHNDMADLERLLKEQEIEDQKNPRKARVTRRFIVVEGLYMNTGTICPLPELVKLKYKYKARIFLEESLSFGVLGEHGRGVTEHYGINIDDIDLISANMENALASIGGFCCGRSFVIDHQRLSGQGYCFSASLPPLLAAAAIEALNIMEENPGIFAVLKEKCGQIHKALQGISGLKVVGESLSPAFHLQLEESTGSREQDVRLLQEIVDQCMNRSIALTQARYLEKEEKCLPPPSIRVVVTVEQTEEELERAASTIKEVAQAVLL

[2] = molecular target: T2, WT-SPTLC1^FLAG (serine-palmitoyltransferase subunit 1, wild type, C-terminal triple FLAG-tag) (UniProt O15269); assay: co-IP
T2 sequence: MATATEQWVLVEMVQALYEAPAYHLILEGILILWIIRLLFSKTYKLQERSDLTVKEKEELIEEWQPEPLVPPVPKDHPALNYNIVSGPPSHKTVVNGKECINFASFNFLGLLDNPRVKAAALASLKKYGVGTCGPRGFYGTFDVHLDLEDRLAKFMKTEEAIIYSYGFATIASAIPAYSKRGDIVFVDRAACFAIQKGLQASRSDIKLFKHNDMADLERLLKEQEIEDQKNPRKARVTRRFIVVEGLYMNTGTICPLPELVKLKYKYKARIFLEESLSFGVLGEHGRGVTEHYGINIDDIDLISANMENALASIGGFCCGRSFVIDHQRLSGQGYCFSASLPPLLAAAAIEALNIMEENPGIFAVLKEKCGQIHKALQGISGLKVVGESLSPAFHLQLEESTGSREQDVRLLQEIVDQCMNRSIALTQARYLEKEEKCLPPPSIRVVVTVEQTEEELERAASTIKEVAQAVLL

[3] = molecular target: SPTLC1^FLAG Y23F (ALS variant) (UniProt O15269); assay: co-IP
[4] = molecular target: SPTLC1^FLAG C133W (HSAN1 variant) (UniProt O15269); assay: co-IP
[5] = molecular target: T3, SPTLC1^FLAG F40S41del (ALS variant) (UniProt O15269); assay: co-IP
T3 sequence: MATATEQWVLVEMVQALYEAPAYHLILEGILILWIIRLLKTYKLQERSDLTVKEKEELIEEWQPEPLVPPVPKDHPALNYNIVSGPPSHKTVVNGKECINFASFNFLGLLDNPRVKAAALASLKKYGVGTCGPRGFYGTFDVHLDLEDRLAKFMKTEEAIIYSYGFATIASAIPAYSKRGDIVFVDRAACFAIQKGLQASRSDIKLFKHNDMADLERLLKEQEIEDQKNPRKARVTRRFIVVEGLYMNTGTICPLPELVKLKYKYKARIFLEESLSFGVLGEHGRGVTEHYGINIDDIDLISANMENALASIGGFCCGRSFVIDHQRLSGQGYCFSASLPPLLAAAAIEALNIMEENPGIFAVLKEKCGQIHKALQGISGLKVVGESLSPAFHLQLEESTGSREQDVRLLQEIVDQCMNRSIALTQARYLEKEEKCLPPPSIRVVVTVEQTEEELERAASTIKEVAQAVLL

[6] = molecular target: SPTLC1^FLAG S331F (HSAN1 variant) (UniProt O15269); assay: co-IP
[7] = molecular target: T1, SPTLC1^FLAG L39del (ALS variant); assay: native gel or EMSA
[8] = molecular target: T2, WT-SPTLC1^FLAG (serine-palmitoyltransferase subunit 1, wild type, C-terminal triple FLAG-tag); assay: native gel or EMSA
[9] = molecular target: T4, SPTLC1, endogenous (human (endogenous in Flp-In T-REx 293)) (UniProt O15269); assay: native gel or EMSA
T4 sequence: T2 sequence

[10] = molecular target: SPTLC1^FLAG Y23F (ALS variant) (UniProt O15269); assay: native gel or EMSA
[11] = molecular target: SPTLC1^FLAG C133W (HSAN1 variant) (UniProt O15269); assay: native gel or EMSA
[12] = molecular target: T3, SPTLC1^FLAG F40S41del (ALS variant); assay: native gel or EMSA
[13] = molecular target: SPTLC1^FLAG S331F (HSAN1 variant) (UniProt O15269); assay: native gel or EMSA

Measured: binding

B1: SPTLC2 (serine-palmitoyltransferase subunit 2) (protein, UniProt O15270 1-562)
chain: MRPEPGGCCCRRTVRANGCVANGEVRNGYVRSSAAAAAAAAAGQIHHVTQNGGLYKRPFNEAFEETPMLVAVLTYVGYGVLTLFGYLRDFLRYWRIEKCHHATEREEQKDFVSLYQDFENFYTRNLYMRIRDNWNRPICSVPGARVDIMERQSHDYNWSFKYTGNIIKGVINMGSYNYLGFARNTGSCQEAAAKVLEEYGAGVCSTRQEIGNLDKHEELEELVARFLGVEAAMAYGMGFATNSMNIPALVGKGCLILSDELNHASLVLGARLSGATIRIFKHNNMQSLEKLLKDAIVYGQPRTRRPWKKILILVEGIYSMEGSIVRLPEVIALKKKYKAYLYLDEAHSIGALGPTGRGVVEYFGLDPEDVDVMMGTFTKSFGASGGYIGGKKELIDYLRTHSHSAVYATSLSPPVVEQIITSMKCIMGQDGTSLGKECVQQLAENTRYFRRRLKEMGFIIYGNEDSPVVPLMLYMPAKIGAFGREMLKRNIGVVVVGFPATPIIESRARFCLSAAHTKEILDTALKEIDEVGDLLQLKYSRHRLVPLLDRPFDETTYEETED
binds: all assays above
